Experimental data taken from publication PMC12207404, “Significance of the CTP-binding motif for the interactions of S. coelicolor ParB with DNA, chromosome segregation, and sporogenic hyphal growth” (Nucleic Acids Research, 2025).
Where a chain is given by its changes, count along the chain named. Names may count otherwise. No constants are given. Whether binding was seen depends on the method and setting. Binding calls can cover weak binding; strength is not graded here. Tags and fused reporters may be left off the sequences shown.

B1: ScParB^G140S;R142A, bacterial two-hybrid fusion (protein, UniProt Q9RFM2 1-368)
chain: MSERRRGLGRGLGALIPNAPTEKSVASAALGSAASAAPGAMPLLPNERGVAAAKVATLQHVSRETEELTAPQGVEGLRPPMGAHFAEVPLDAITPNPKQPRKDFDDDALAELVTSIREVGLLQPVVVRPTEPGRYELIMSEARFRACRELELDAIPAIVRATEDEKLLLDALLENLHRAQLNPLEEAFAYDQLLKDFNCTHDQLADRIGRSRPQVSNTLRLLKLSPKVQNRVAAGVLSAGHARALLSVDDPEEQDRLAHRIVAEGLSVRSVEEIVTLMGSRPQKPQRAKGPRAGSLVSPALSDLATRLSDRFETRVKVDLGQKKGKITVEFASMDDLERILGSLAPGEGPVLQKGLLEGEDEDGDAES
B2: S. coelicolor ParB (ScParB), wild type, bacterial two-hybrid fusion (protein, UniProt Q9RFM2 1-368)
chain: B1 chain with S140G, A142R

Biological target: S. coelicolor ParA (ScParA), bacterial two-hybrid fusion (S. coelicolor)
Assay: two-hybrid; bacterial two-hybrid (BACTH): pUT18C and pKT25 derivatives cotransformed into E. coli BTH101; blue colonies on LB agar with X-gal and 0.5 mM IPTG, 30°C, and β-galactosidase activity (Miller units)

Binder	binding
B1	binds
B2	binds
